Measurements reported in article PMC6925144, “A prospective compound screening contest identified broader inhibitors for Sirtuin 1” (Scientific Reports, 2019).
The full ranking holds about 3,200 compounds; the median of “TSA(without NAD+) / Primary screening (TSA) / delta Tm (K)” is about -0.07, and the highest 2% start at about 0.37. This is one part of the list.

The chains behind the UniProt entries cited, without tags or fusion partners. Residues count along the entry.
UniProt Q96EB6, 2-747 limits assumed: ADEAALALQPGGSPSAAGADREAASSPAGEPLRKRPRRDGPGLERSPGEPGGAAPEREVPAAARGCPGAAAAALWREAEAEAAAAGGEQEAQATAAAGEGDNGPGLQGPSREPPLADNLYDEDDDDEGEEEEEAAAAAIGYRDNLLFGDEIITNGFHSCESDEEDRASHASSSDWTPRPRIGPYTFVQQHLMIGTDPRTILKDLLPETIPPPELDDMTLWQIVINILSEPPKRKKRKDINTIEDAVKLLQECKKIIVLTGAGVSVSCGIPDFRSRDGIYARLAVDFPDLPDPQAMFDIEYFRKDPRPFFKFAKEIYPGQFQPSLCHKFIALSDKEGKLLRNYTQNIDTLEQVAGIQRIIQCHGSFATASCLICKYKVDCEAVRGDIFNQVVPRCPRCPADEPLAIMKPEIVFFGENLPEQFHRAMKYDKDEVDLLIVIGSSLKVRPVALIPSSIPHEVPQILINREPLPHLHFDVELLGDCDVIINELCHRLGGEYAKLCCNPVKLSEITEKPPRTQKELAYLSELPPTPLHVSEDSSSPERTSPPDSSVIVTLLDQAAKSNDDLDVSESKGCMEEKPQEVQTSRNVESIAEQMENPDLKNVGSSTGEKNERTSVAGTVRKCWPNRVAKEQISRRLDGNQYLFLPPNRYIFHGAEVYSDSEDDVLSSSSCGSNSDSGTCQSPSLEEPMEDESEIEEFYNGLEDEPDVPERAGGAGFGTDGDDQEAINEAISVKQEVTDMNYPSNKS

target: NAD-dependent deacetylase Sirtuin 1 (human, UniProt Q96EB6); assay: primary screen, delta tm; design: single well (n = 1); settings: 10 µM
Procedure, shortened: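 Thermal shift of Sirtuin 1 measured without NAD+, compound at 10 µM (n = 1); value is ΔTm, with hits defined as ΔTm > 0.45 K or < −1.5 K. Hits retested at 5, 10, 20 µM (n = 4) and counterscreened on bovine carbonic anhydrase and ABL1 SH2 domain.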

Point of comparison: `NC(=O)c1cncc(Oc2nc3ccccc3o2)c1`, “TSA(without NAD+) / Primary screening (TSA) / delta Tm (K)” value -0.02 K. Against it:
- CCOc1ccc(S(=O)(=O)N2CCOCC2)cc1NC(=O)C1=COCCO1 — lower, -0.18 K
- O=C1NCCN1c1cccc(N2C(=O)Cc3ccccc3C2=O)c1 — lower, -0.24 K
- Cn1ncc2c(N3CCC(C(=O)Nc4ccccc4O)CC3)ncnc21 — the same, -0.02 K
- Cc1ccnc(NC(=O)C2CCN(C(=O)c3cccc(S(=O)(=O)NCC4CCCO4)c3)CC2)c1 (centres unmarked) — the same, -0.02 K
- Cc1ccc(S(=O)(=O)CCC(=O)OCc2nnc(-c3ccc([N+](=O)[O-])cc3)o2)cc1 — the same, -0.02 K
- O=C(NC1=NCCS1)c1cc(Cl)ccc1O — lower, -0.05 K
- O=C(CCCNC(=O)c1ccc(Cl)cc1)Nc1cccc(S(=O)(=O)N2CCOCC2)c1 — higher, 0.07 K
- CCC1CCCCN1c1ncnc2c(C)csc12 (centres unmarked) — higher, 0.22 K
- NC(=O)C(Cc1ccccc1)NC(=O)CCc1nc2ccccc2[nH]1 (centres unmarked) — lower, -0.17 K
- C=CCn1c(SCC(=O)NC(C)c2ccco2)nc2ccsc2c1=O (centres unmarked) — lower, -0.18 K
- Cc1nc2ccccc2c(C)c1C(=O)OCC(N)=O — lower, -0.12 K
- CC(C)c1ccc(C2(C)CC(=O)NC2=O)cc1 (centres unmarked) — lower, -0.24 K
- NCCS(=O)(=O)CCN — lower, -0.21 K
- Cc1ccnc(NC(=O)C2CCN(c3nc(C)nc4scc(-c5cccs5)c34)CC2)c1 — lower, -0.28 K
- CC(=C/c1ccccc1)/C=N/NC(=O)c1cc(-c2ccc(C)cc2)n[nH]1 — higher, 1.06 K
- CC(C)Cc1ccc(C(=O)C2CCN(C(=O)c3cnc4ccccc4n3)CC2)cc1 — lower, -0.23 K
- CC(C)Oc1ccc(C(=O)C2=C(O)C(=O)N(CCCN3CCOCC3)C2c2cccs2)cc1 (centres unmarked) — lower, -0.23 K
- COc1ccc(C(=O)C2=C(O)C(=O)N(CCCN3CCOCC3)C2c2ccco2)cc1Cl (centres unmarked) — higher, 0.02 K
- Cc1cc(NC(=O)CCc2nc3ccccc3[nH]2)ccc1N1CCCC1 — lower, -0.08 K
- O=S(=O)(/C=C/c1ccccc1)N1CCN(c2ncnc3sc4c(c23)CCCCC4)CC1 — lower, -0.14 K
- CC(C)COc1ccc(C(=O)C2=C(O)C(=O)N(CCN3CCOCC3)C2c2cccnc2)cc1 (centres unmarked) — higher, 0.05 K
- C#CCCCN — lower, -0.05 K
- O=C(O)[C@H](O)[C@@H](O)C(=O)O — lower, -0.08 K
- CCOc1ccc(C2C(C(=O)c3cccc(OC)c3)=C(O)C(=O)N2CCCN2CCOCC2)cc1 (centres unmarked) — lower, -0.08 K
- COc1ccc(NC(=O)CSc2nnc(Nc3ccc(SC(F)F)cc3)s2)cc1OC — higher, 0.73 K
